In publication PMC4401782:
No constants are given. Whether binding was seen depends on the method and setting. Binding seen in cells or lysates may run through a third protein. These calls come from enrichment with a bait or labelling near it, and not all partners need be listed.

Sequences of proteins named here, by UniProt entry; tags and fusion partners are left off. A change or cut given only in a name is not applied to a line headed by its entry.
UniProt A0QQK6: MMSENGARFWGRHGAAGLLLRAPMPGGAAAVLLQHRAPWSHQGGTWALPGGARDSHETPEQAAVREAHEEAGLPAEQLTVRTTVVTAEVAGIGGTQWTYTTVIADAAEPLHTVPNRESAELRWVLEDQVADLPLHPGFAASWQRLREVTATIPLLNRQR

Target: RenU.6H expressed in M. smegmatis (M. smegmatis) (UniProt A0QQK6)
Test: affinity purification with mass spectrometry; RenU.6H expressed in M. smegmatis, purified from cell lysates (immobilized Cobalt affinity chromatography); co-purified proteins identified by LC/MS/MS

B1: 50S ribosomal protein L13 of M. smegmatis (endogenous) (protein, UniProt A0QSP8 1-147)
chain: MPTYTPKAGDTTRSWYVIDASDVVLGRLASAAATLLRGKHKPTFTPNVDGGDFVIVINADKIAVSGDKLTKKFAYRHSGYPGGLRKRTIGELLEKHPTRVVENAIIGMLPHNKLGRQIQKKLKVYAGPDHPHAAQQPIPFEIKQVAQ
  binding: binds

B2: ssrA-binding protein SmpB of M. smegmatis (endogenous) (protein, UniProt A0QU63 1-161)
chain: MTKKSASSNNKVVATNRKARHNYTILDTYEAGIVLMGTEVKSLREGQASLADAFATVDDGEIWLRNVHIAEYHHGTWTNHAPRRNRKLLLHRKQIDNLIGKIRDGNLTLVPLSIYFTDGKVKVELALARGKQAHDKRQDLARRDAQREVIRELGRRAKGKI
  binding: binds
